Results published in PMC11165425.
These are yes or no findings as the source states them, for the method shown. Binding seen in cells or lysates may run through a third protein. Some entries that bind do so weakly or less than the wild type. Sequences can lack the tags named with a protein. Blank lines part the entries; values can stand above or below the molecule they belong to.

Amino acid sequences for entries named in this document (tags omitted).
UniProt P61011: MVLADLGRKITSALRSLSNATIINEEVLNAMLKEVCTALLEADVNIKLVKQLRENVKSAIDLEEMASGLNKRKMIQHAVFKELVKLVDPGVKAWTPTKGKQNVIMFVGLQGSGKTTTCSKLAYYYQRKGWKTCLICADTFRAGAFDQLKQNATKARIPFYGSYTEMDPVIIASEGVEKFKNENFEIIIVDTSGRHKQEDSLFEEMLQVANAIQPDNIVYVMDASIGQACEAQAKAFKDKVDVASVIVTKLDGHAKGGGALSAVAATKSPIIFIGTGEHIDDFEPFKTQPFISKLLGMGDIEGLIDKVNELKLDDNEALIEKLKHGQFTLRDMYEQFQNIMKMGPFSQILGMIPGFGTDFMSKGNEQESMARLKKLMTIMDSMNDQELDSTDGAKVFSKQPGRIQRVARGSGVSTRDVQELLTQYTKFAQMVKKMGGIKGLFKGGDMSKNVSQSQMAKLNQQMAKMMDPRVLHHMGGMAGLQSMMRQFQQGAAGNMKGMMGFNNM

Tests used:
[1] = target: T1, GFP-SRP19 (human) (UniProt P09132); assay: co-IP; GFP-Trap beads on total extracts of U2OS Flp-In T-REx cells expressing the GFP-SRP protein for 12 h; RSB-150 buffer with 0.05% NP-40, 2 h at 4°C; Western blot
T1 sequence: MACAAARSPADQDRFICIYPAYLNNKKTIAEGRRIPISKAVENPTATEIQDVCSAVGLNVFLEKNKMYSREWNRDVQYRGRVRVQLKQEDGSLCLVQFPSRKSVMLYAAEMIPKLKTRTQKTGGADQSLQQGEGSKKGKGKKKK

[2] = target: T2, GFP-SRP72 (human) (UniProt O76094); assay: as above
T2 sequence: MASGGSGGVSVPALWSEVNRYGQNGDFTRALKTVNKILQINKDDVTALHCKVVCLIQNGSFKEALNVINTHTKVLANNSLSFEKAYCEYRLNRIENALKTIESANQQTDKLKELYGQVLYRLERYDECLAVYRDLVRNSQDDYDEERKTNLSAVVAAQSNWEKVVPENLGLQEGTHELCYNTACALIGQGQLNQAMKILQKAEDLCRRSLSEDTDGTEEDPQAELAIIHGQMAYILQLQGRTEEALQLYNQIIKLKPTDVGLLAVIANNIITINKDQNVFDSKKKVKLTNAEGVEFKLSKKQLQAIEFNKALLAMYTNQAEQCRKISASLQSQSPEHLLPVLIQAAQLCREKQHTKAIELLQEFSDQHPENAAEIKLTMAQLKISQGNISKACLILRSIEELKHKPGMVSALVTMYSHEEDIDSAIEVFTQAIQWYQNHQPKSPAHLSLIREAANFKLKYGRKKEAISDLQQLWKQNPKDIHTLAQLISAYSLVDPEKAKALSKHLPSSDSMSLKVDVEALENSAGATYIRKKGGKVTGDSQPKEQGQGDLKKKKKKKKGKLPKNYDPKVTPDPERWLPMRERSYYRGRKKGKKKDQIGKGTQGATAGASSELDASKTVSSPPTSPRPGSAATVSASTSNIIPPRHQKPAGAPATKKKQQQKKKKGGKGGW

[3] = target: T1, GFP-SRP19 (human); assay: co-IP; GFP-Trap beads on total extracts of HEK293 Flp-In T-REx cells expressing the GFP-SRP protein for 3 h, without RNase A; RSB-150 buffer (10 mM Tris-HCl pH 7.5, 150 mM NaCl, 2.5 mM MgCl2) with 0.05% NP-40, 2 h at 4°C; Western blot
[4] = target: T2, GFP-SRP72 (human); assay: as above

- binding [1]: binds
- binding [2]: binds
- binding [3]: binds
- binding [4]: binds
Molecule: SRP54 (from UniProt P61011 1-504)

- binding [1]: binds
- binding [3]: binds
B1: SRP72 (protein, UniProt O76094 1-671)
chain: T2 sequence

- binding [2]: binds
- binding [4]: binds
B2: SRP19 (protein, UniProt P09132 1-144)
chain: T1 sequence

- binding [1]: binds
- binding [2]: binds
- binding [3]: binds
- binding [4]: binds
B3: SRP68 (protein, UniProt Q9UHB9 1-627)
chain: MAAEKQVPGGGGGGGSGGGGGSGGGGSGGGRGAGGEENKENERPSAGSKANKEFGDSLSLEILQIIKESQQQHGLRHGDFQRYRGYCSRRQRRLRKTLNFKMGNRHKFTGKKVTEELLTDNRYLLLVLMDAERAWSYAMQLKQEANTEPRKRFHLLSRLRKAVKHAEELERLCESNRVDAKTKLEAQAYTAYLSGMLRFEHQEWKAAIEAFNKCKTIYEKLASAFTEEQAVLYNQRVEEISPNIRYCAYNIGDQSAINELMQMRLRSGGTEGLLAEKLEALITQTRAKQAATMSEVEWRGRTVPVKIDKVRIFLLGLADNEAAIVQAESEETKERLFESMLSECRDAIQVVREELKPDQKQRDYILEGEPGKVSNLQYLHSYLTYIKLSTAIKRNENMAKGLQRALLQQQPEDDSKRSPRPQDLIRLYDIILQNLVELLQLPGLEEDKAFQKEIGLKTLVFKAYRCFFIAQSYVLVKKWSEALVLYDRVLKYANEVNSDAGAFKNSLKDLPDVQELITQVRSEKCSLQAAAILDANDAHQTETSSSQVKDNKPLVERFETFCLDPSLVTKQANLVHFPPGFQPIPCKPLFFDLALNHVAFPPLEDKLEQKTKSGLTGYIKGIFGFRS
